Reference: PubChem BioAssay AID330 (DTP/NCI, 2004)
The list shows only some results of the screen, not a fair sample: it is rich in T/C values a quarter to a half above the control, in often repeated tests (any T/C) and in doses without a T/C. Further doses and runs are listed elsewhere. T/C is the treated group as % of the vehicle group. Some doses have a count of surviving animals in place of a T/C: the source files T/C as zero there, which appears to mark a toxic dose or a test without result, not a measured value. Some doses without a T/C left all or most animals alive at the check, yet need not have been tolerated: survival well below the control is almost never listed, so the zero probably covers shortened survival too. Survivors were counted at the toxicity check, usually on the fifth day, unless a day is given; later deaths do not show. Schedule codes are those of the source, taken here to give the interval after Q, in days (D) or hours (H), and the number of doses after X. Some entries hold several experiments; their values stand side by side, smallest first. Where survival is the endpoint, the PubChem record calls one and a half times the control and up active, and a quarter to a half above the control has no call in these data; cut-offs in other NCI protocols can differ.

Tested on: P388 leukemia ip, CD2F1 mice, survival T/C
Assay: NCI In Vivo Anticancer Drug Screen. Data for tumor model P388 Leukemia (intraperitoneal) in CD2F1 (CDF1) mice
Conditions: T/C endpoint: median survival time, higher T/C = longer survival
[1] = dose: 200.0 mg/kg/injection, schedule: Q01DX005 (ip), vehicle: saline with Tween-80
[2] = dose: 100.0 mg/kg/injection, schedule: Q01DX005 (ip), vehicle: saline with Tween-80
[3] = dose: 200.0 mg/kg/injection, schedule: Q01DX005 (ip), vehicle: Klucel (hydroxypropylcellulose) (HPC)
[4] = dose: 15.0 micrograms/kg/injection, schedule: Q01DX005 (ip), vehicle: saline + alcohol
[5] = dose: 100.0 mg/kg/injection, schedule: Q01DX009 (ip), vehicle: saline with Tween-80

O=[N+]([O-])c1cccc2c(-c3nccc4c([N+](=O)[O-])cccc34)nccc12
survivor count [1]: 4 of 5

CCC1(CC)CCC(C#N)C1=N (stereo not given)
survivor count (dose: 100.0 mg/kg/injection, schedule: Q01DX001 (ip), vehicle: Klucel (hydroxypropylcellulose) (HPC)): 0 of 6
survivor count (dose: 200.0 mg/kg/injection, schedule: Q01DX001 (ip), vehicle: Klucel (hydroxypropylcellulose) (HPC)): 0 of 6
survivor count (dose: 400.0 mg/kg/injection, schedule: Q01DX001 (ip), vehicle: Klucel (hydroxypropylcellulose) (HPC)): 1 of 6

Oc1cc(O)cc(/C=C/c2ccccc2)c1
survivor count (dose: 200.0 mg/kg/injection, schedule: Q01DX005 (ip), vehicle: water): 3 of 6
survivor count (dose: 400.0 mg/kg/injection, schedule: Q01DX005 (ip), vehicle: water): 2 of 6

N=C(N)n1c(N)nc2ccccc2c1=O
survivor count (dose: 50.0 mg/kg/injection, schedule: Q01DX005 (ip), vehicle: Klucel (hydroxypropylcellulose) (HPC)): 1 of 5
survivor count (dose: 100.0 mg/kg/injection, schedule: Q01DX005 (ip), vehicle: Klucel (hydroxypropylcellulose) (HPC)): 0 of 5
survivor count [2]: 1 of 5
survivor count [3]: 0 of 5

C=C1C(O)C2OC3(CCC(/C=C/C(C)C4CC5(C)SC5C5(OC(CC(C)(O)C(=O)O)CCC5O)O4)O3)CCC2OC1C(O)CC(C)C1OC2(CCCCO2)CCC1C (stereo not given)
T/C (dose: 7.5 micrograms/kg/injection, schedule: Q01DX005 (ip), vehicle: saline + alcohol): 126 % of control
T/C [4]: 125 % of control
survivor count [4]: 5 of 5
survivor count (dose: 30.0 micrograms/kg/injection, schedule: Q01DX005 (ip), vehicle: saline + alcohol): 0 of 5
survivor count (dose: 60.0 micrograms/kg/injection, schedule: Q01DX005 (ip), vehicle: saline + alcohol): 0 of 5

O=C(NO)Nc1cc(Cl)cc(Cl)c1
survivor count (dose: 240.0 mg/kg/injection, schedule: Q01DX005 (ip), vehicle: saline with Tween-80): 1 of 6

O=C1OCCc2c1[nH]c1ccccc21
survivor count (dose: 400.0 mg/kg/injection, schedule: Q04DX002 (ip), vehicle: saline with Tween-80): 0 of 6

CC(C)C1(c2ccsc2)NC(=O)NC1=O (stereo not given)
survivor count (dose: 400.0 mg/kg/injection, schedule: Q01DX009 (ip), vehicle: Klucel (hydroxypropylcellulose) (HPC)): 1 of 6

CCCCOC(C(=O)OCCN(CC)CC)(c1ccccc1)c1ccccc1
survivor count [3]: 0 of 5

C/C=C(\C(=O)O)S(=O)(=O)O.[Pb]
survivor count [5]: 2 of 6

O=C1NC2C(=CC(O)C(O)C2O)c2cc3c(cc21)OCO3 (stereo not given)
T/C (dose: 25.0 mg/kg/injection, schedule: Q01DX009 (ip), vehicle: saline + alcohol): 128 % of control
survivor count (dose: 50.0 mg/kg/injection, schedule: Q01DX009 (ip), vehicle: saline + alcohol): 2 of 4 and 5 of 6
survivor count (dose: 100.0 mg/kg/injection, schedule: Q01DX009 (ip), vehicle: saline + alcohol): 0 of 4

CCC[CH2][Sn]([CH2]CCC)([O]C(=O)CCC(C)=O)[O]C(=O)CCC(C)=O
T/C (dose: 6.25 mg/kg/injection, schedule: Q01DX009 (ip), vehicle: Klucel (hydroxypropylcellulose) (HPC)): 129 and 142 % of control
survivor count (dose: 12.5 mg/kg/injection, schedule: Q01DX009 (ip), vehicle: Klucel (hydroxypropylcellulose) (HPC)): 6 of 6
survivor count (dose: 25.0 mg/kg/injection, schedule: Q01DX009 (ip), vehicle: Klucel (hydroxypropylcellulose) (HPC)): 6 of 6
survivor count (dose: 50.0 mg/kg/injection, schedule: Q01DX009 (ip), vehicle: saline with Tween-80): 0 of 6
survivor count [5]: 0 of 6
survivor count (dose: 200.0 mg/kg/injection, schedule: Q01DX009 (ip), vehicle: saline with Tween-80): 0 of 6

N#Cc1ccc[n+](Cc2c(Cl)cccc2Cl)c1
T/C (dose: 50.0 mg/kg/injection, schedule: Q01DX009 (ip), vehicle: saline): 127 % of control
survivor count (dose: 100.0 mg/kg/injection, schedule: Q01DX009 (ip), vehicle: saline): 2 of 6 and 3 of 6
survivor count (dose: 200.0 mg/kg/injection, schedule: Q01DX009 (ip), vehicle: saline): 0 of 6

COc1ccc(N2C(N)=NC(N)=NC2(C)C)cc1
survivor count (dose: 50.0 mg/kg/injection, schedule: Q01DX005 (ip), vehicle: saline with Tween-80): 3 of 5
survivor count [2]: 0 of 5
survivor count [1]: 0 of 5
